Laboratory results from paper PMC8062265.

Legend:
[1] = target: T1, transmembrane and coiled-coil domain family 3 (TMCC3), endogenous in AS-B634 (human (endogenous in AS-B634)) (UniProt Q9ULS5); experiment: co-IP; endogenous TMCC3 precipitated from AS-B634 with anti-TMCC3 antibody; AKT detected in the immunoprecipitate
T1 sequence: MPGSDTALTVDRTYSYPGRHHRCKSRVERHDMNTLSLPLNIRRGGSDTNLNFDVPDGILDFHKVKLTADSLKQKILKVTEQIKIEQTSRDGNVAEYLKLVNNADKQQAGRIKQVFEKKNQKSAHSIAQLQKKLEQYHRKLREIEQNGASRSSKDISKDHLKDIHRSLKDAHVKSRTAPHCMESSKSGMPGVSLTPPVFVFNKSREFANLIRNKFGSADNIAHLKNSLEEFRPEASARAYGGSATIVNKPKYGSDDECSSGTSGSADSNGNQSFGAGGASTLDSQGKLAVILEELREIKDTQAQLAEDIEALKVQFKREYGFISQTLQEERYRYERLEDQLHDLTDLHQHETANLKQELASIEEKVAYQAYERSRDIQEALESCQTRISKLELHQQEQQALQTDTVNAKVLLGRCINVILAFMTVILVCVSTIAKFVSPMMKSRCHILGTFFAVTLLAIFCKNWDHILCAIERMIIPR

[2] = target: T2, flag-tagged 1-153 a.a. domain of TMCC3 (human) (UniProt Q9ULS5); experiment: co-IP; 293T cells co-transfected with flag-tagged TMCC3 (full-length or truncated) and HA-tagged AKT; anti-flag precipitation, blot with anti-HA antibody
T2 sequence: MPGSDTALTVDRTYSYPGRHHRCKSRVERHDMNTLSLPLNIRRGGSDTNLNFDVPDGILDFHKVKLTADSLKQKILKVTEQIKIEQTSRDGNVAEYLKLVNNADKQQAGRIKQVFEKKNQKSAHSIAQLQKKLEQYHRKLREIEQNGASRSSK

[3] = target: T3, flag-tagged 1-282 a.a. domain of TMCC3 (human) (UniProt Q9ULS5); experiment: as above
T3 sequence: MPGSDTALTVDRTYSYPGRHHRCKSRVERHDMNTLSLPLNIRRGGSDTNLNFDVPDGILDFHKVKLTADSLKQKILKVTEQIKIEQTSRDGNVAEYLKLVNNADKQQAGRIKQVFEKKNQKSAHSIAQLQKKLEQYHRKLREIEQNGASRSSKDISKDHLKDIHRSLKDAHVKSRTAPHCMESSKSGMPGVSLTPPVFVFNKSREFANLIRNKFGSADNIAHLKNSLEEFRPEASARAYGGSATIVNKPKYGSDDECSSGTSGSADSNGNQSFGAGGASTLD

[4] = target: T4, flag-tagged 283-416 a.a. domain of TMCC3 (human) (UniProt Q9ULS5); experiment: as above
T4 sequence: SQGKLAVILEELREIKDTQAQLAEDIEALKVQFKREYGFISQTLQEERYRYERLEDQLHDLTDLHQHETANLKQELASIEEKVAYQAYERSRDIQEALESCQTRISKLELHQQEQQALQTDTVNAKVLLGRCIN

[5] = target: T5, flag-tagged full-length (1-477) TMCC3, in 293T (human) (UniProt Q9ULS5); experiment: as above
T5 sequence: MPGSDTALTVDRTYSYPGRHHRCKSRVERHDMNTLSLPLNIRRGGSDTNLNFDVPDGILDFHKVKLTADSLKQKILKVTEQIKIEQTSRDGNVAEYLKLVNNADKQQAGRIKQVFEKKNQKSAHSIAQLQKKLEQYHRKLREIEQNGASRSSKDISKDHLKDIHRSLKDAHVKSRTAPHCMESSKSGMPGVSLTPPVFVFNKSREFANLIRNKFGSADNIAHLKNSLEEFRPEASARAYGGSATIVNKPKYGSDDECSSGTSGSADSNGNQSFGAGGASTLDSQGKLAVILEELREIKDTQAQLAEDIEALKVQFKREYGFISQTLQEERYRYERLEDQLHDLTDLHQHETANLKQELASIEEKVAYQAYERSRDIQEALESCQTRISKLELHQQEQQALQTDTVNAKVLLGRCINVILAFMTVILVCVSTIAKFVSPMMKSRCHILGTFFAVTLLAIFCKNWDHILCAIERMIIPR

[6] = target: T6, flag-tagged full-length (FL)-TMCC3, in MDA-MB231 (human) (UniProt Q9ULS5); experiment: co-IP; MDA-MB231 cells transfected with flag-tagged FL-TMCC3 and HA-tagged AKT; precipitation with anti-flag or anti-HA antibody, then immunoblotting
T6 sequence: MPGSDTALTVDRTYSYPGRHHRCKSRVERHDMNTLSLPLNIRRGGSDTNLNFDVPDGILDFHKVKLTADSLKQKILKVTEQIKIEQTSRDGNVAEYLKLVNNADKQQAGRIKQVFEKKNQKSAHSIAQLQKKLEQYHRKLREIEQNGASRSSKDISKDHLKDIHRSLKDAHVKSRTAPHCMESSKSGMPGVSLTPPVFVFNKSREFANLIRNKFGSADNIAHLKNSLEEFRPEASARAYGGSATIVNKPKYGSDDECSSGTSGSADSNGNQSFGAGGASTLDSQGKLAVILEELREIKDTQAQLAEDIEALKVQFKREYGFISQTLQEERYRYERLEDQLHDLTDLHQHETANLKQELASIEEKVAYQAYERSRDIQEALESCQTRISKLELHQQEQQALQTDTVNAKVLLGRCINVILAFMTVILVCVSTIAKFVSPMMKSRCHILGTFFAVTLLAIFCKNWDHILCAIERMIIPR

[7] = target: HA-tagged AKT, in MDA-MB231; experiment: as above

With “AKT, endogenous in AS-B634 (human (endogenous in AS-B634))” the binding [1] was “binds”.

For HA-tagged AKT, in 293T, the binding [2] was “binds”, the binding [3] was “binds” and the binding [4] was “no binding”. The binding [5] was “binds”.

With HA-tagged AKT, in MDA-MB231 the binding [6] was “binds”.

B1: flag-tagged full-length (FL)-TMCC3, in MDA-MB231 (protein, UniProt Q9ULS5 1-477)
chain: MPGSDTALTVDRTYSYPGRHHRCKSRVERHDMNTLSLPLNIRRGGSDTNLNFDVPDGILDFHKVKLTADSLKQKILKVTEQIKIEQTSRDGNVAEYLKLVNNADKQQAGRIKQVFEKKNQKSAHSIAQLQKKLEQYHRKLREIEQNGASRSSKDISKDHLKDIHRSLKDAHVKSRTAPHCMESSKSGMPGVSLTPPVFVFNKSREFANLIRNKFGSADNIAHLKNSLEEFRPEASARAYGGSATIVNKPKYGSDDECSSGTSGSADSNGNQSFGAGGASTLDSQGKLAVILEELREIKDTQAQLAEDIEALKVQFKREYGFISQTLQEERYRYERLEDQLHDLTDLHQHETANLKQELASIEEKVAYQAYERSRDIQEALESCQTRISKLELHQQEQQALQTDTVNAKVLLGRCINVILAFMTVILVCVSTIAKFVSPMMKSRCHILGTFFAVTLLAIFCKNWDHILCAIERMIIPR
B1 was tested, and the binding [7] was “binds”.

No constants are given. Whether binding was seen depends on the method and setting. In cells and extracts the contact can be indirect. For some of these results: Binding calls can cover weak binding; strength is not graded here. For some of these results: Sequences can lack the tags named with a protein.
